Experimental data reported in EP4775574A1, “FURAN RING-CONTAINING COMPOUND, PHARMACEUTICAL COMPOSITION THEREOF, AND USE THEREOF” (Wuhan Xirui Pharmaceutical Technology Co., Ltd, priority 2023, dated 2025).

Test system: KM mouse acetic acid-induced writhing model
Assay: Analgesic efficacy in mouse acetic acid-induced writhing model
Assay type: in vivo, KM mice
Details: 100 mg/kg intragastric, single dose, writhes within 20 min, p < 0.05 vs solvent control
Experimental: 1. Objective: The analgesic efficacy of the example was evaluated in a KM mouse acetic acid-induced writhing model. 2. Experimental methods: 2.1 Experimental drugs: The compounds in examples of the present disclosure and reference compound were self-prepared. Naproxen, Shanghai Yuanye Bio-Technology Co., Ltd., Catalog No. S63435. It was prepared using a solvent (Tween 80 + 0.5% MC (v:v = 1:99 pH = 3)). 2.2 Experimental animals: Male KM mice were purchased from Hubei Provincial Center for Disease Control and Prevention (Hubei Provincial Academy of Preventive Medicine), weighing 20 to 25 g at the time of purchase. 2.3 Experimental grouping: Table 6: Efficacy test grouping of compounds in the acetic acid-induced writhing model
2.5 Data collection and analysis • Data were collected using Excel software. • Data were analyzed using Prism (Graph pad software, Inc.) software. 3. Results Table 7: Analgesic efficacy results of compounds in the mouse acetic acid-induced writhing pain model

COc1ccc2cc([C@H](C)C(=O)O)ccc2c1 [Naproxen]
Number of writhes (first group set (solvent control 16.11 ± 5.84)): 8.50 ± 4.50
Number of writhes (second group set (solvent control 20.11 ± 3.55)): 5.86 ± 3.53
